Experimental findings from article PMC7819943, “Rice protein-binding microarrays: a tool to detect cis-acting elements near promoter regions in rice” are described below.

Protein sequences, listed by entry. Tags and fused reporters are not part of them.
UniProt Q0JBA9, entry or part of it: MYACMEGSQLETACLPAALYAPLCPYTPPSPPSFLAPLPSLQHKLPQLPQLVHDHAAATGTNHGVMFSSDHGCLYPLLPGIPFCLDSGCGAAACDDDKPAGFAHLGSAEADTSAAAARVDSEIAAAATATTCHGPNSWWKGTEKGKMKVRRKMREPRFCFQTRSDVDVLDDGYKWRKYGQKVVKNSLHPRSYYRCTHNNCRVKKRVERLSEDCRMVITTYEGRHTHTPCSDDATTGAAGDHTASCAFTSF

The other results are listed elsewhere or left out.

The target of this test is OsWRKY34 (Oryza sativa, UniProt Q0JBA9 1-250). Briefly: protein-binding microarray (RPBM); PBS, 2% BSA, 51.3 ng/ul salmon testes DNA, 50 uM zinc acetate, 200 nM TF, 25 C, 1 h; high values mean tight binding. The settings on record: protein: recombinant; tags: N-terminal polyhistidine and DsRed monomer fusion (pET32a); label: CyDye5-dUTP incorporated in the synthesized complementary strand; 3' TTTTT single-stranded linker to array surface; dsDNA, one strand shown. The essentials:
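The binding signal is fluorescence intensity per feature, in arbitrary units, read on an Axon 4000B scanner. Polyhistidine- and DsRed-tagged transcription factors (N-terminal fusions) from E. coli BL21-CodonPlus were purified on Ni–NTA and applied at 200 nM for 1 h at 25 °C to a double-stranded, BSA-blocked custom Agilent array in buffer with 50 µM zinc acetate.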
As for “GATAATTACTCTTACGTCCCTCACCCTATGTTCCTGTGTTCGGAGTCACCTAGTGCAG”, the binding signal was 8840 fluorescence intensity (a.u.).

Turning to “GACTCCTCCTGCTAGCTCGCCCGTATCCAGCTCTACCTTCCGGAGTCACCTAGTGCAG”, the binding signal is 13300 fluorescence intensity (a.u.).

On to “GTCACCTTTGTACCATCCAATTCCAACCCCACATTTCATCCGGAGTCACCTAGTGCAG”, for which the binding signal was 8100 fluorescence intensity (a.u.).

With “ATTGATCTCCTTTCCATCCTCGTCGACCTCGGCGGGCGCGCGGAGTCACCTAGTGCAG”, the binding signal is 9220 fluorescence intensity (a.u.).

Consider “TCCAGCTGCTTGCTTCTCTCTCTCTCTTCTCTTGAGCATCCGGAGTCACCTAGTGCAG”, for which the binding signal is 9650 fluorescence intensity (a.u.).

As to “CAGGTTTTAAGTAGATAGGTGGTTTTTTTTTTCCCATAGACGGAGTCACCTAGTGCAG”, the binding signal was 8270 fluorescence intensity (a.u.).

Take “TCGGCCGCCGGCGTCAATCTTCGATTCCCTCCGCTCCGGTCGGAGTCACCTAGTGCAG”: the binding signal is 8270 fluorescence intensity (a.u.).

In the case of “TCCTCGGCCTCTTCTTCGCGCCCTCCGCCCCGCGACCGGGCGGAGTCACCTAGTGCAG”, the binding signal is 10300 fluorescence intensity (a.u.).

In the case of “CGCGTCCACGTCGGGCTCCGGGGATGGGGCGGGGAAGCCGCGGAGTCACCTAGTGCAG”, the binding signal is 10500 fluorescence intensity (a.u.).

Turning to “CACCAACTTACCGTCGTTCCAAGCCTTGTTTCTGCAGGCTCGGAGTCACCTAGTGCAG”, the binding signal is 12500 fluorescence intensity (a.u.).

With “GTCATATGGCACCATGCTTGCTCTCCACTCTTCAATCAGTCGGAGTCACCTAGTGCAG”, the binding signal was 9490 fluorescence intensity (a.u.).

For “TGCTTACCTAGTTACCTGACATGCTATTGATTCTTCATAACGGAGTCACCTAGTGCAG”, the binding signal was 8840 fluorescence intensity (a.u.).

Regarding “GGCTGCTCCTGGCTCATCGTCCTAGTACACTCTCGTCGTACGGAGTCACCTAGTGCAG”, the binding signal was 9100 fluorescence intensity (a.u.).

Consider “CTTTCTCGCTGCTGTTTTTTTAGCTCGTGCCTGTCTGGTCCGGAGTCACCTAGTGCAG”, for which the binding signal was 8370 fluorescence intensity (a.u.).

On to “TGGTTTCTTTGTCCATTGATCAAACTCATGGCATGTACGACGGAGTCACCTAGTGCAG”, for which the binding signal was 8360 fluorescence intensity (a.u.).

Take “CCCCGGCCATGTCCAAGCCCGATCGCCGCTCCGGCGCCGCCGGAGTCACCTAGTGCAG”: the binding signal was 9910 fluorescence intensity (a.u.).

“CCACTCATCGTCACGCCATTTCACCGCTTCCCTTTCCTGACGGAGTCACCTAGTGCAG”: the binding signal is 10500 fluorescence intensity (a.u.).

As to “CATACTTCAATTTAATGCTACTTATCTCACATGATGTCTTCGGAGTCACCTAGTGCAG”, the binding signal was 8700 fluorescence intensity (a.u.).

“CCTCTCCCTCTCCCGCCGCCACCGCCTCCGCCTCCGCCTCCGGAGTCACCTAGTGCAG”: the binding signal is 9220 fluorescence intensity (a.u.).

Turning to “ACCTGTTGTGATATACTGTGTTTAGTTCAGCGTAAAATTTCGGAGTCACCTAGTGCAG”, the binding signal is 9280 fluorescence intensity (a.u.).

With “TCCCACGTTGCTCCATCTCTCGCTATAAACCATTTCTTCTCGGAGTCACCTAGTGCAG”, the binding signal was 13400 fluorescence intensity (a.u.).

In the case of “TTCCTATCATTTGACTAATTGTTAAATATACTTTCATATACGGAGTCACCTAGTGCAG”, the binding signal was 8160 fluorescence intensity (a.u.).

As for “CGACGGCTGCTAATCAACTCTTGAATTCACATCCAACGGACGGAGTCACCTAGTGCAG”, the binding signal was 8200 fluorescence intensity (a.u.).
